# Data taken from the supplement of paper PMC12819154, “High-throughput peptide-centric local stability assay extends protein–ligand identification to membrane proteins, tissues and bacteria” (Nature Structural & Molecular Biology, 2025).
# Amino acid sequences for entries named in this document (tags omitted). A change or cut given only in a name is not applied to a line headed by its entry.
# UniProt Q9NTG7: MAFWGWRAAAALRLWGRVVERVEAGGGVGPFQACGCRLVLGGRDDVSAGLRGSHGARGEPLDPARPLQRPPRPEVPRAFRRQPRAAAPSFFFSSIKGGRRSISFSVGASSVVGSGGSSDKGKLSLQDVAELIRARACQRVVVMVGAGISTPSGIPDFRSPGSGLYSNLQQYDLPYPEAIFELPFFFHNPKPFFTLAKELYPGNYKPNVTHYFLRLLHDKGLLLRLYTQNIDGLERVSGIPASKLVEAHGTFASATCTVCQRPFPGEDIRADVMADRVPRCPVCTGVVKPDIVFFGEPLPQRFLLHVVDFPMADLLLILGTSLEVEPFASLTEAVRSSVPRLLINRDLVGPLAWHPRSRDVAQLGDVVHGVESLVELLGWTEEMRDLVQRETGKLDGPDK
# UniProt Q9HD40: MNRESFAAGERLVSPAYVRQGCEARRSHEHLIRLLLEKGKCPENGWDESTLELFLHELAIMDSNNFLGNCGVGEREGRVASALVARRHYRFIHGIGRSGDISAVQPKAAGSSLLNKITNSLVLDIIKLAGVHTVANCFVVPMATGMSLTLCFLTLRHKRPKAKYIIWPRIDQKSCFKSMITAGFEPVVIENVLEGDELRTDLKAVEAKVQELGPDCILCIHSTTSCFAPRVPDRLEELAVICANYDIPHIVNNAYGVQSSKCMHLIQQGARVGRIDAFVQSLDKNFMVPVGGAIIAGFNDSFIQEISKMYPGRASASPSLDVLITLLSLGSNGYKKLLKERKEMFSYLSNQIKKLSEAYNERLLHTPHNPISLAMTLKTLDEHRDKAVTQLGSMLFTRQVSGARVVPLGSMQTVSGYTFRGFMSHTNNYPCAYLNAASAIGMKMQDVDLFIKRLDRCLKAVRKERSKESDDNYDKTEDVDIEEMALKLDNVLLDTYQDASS
# UniProt Q9NSC5: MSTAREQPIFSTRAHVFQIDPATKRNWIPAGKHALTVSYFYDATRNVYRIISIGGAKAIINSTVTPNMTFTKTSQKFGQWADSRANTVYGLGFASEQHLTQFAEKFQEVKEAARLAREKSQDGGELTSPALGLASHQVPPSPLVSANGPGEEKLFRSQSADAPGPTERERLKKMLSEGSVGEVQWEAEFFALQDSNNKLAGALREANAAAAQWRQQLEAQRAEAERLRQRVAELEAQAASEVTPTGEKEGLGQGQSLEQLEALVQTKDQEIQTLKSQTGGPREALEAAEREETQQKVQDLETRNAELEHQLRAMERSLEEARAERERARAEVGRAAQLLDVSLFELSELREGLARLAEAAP
# UniProt Q9NW75: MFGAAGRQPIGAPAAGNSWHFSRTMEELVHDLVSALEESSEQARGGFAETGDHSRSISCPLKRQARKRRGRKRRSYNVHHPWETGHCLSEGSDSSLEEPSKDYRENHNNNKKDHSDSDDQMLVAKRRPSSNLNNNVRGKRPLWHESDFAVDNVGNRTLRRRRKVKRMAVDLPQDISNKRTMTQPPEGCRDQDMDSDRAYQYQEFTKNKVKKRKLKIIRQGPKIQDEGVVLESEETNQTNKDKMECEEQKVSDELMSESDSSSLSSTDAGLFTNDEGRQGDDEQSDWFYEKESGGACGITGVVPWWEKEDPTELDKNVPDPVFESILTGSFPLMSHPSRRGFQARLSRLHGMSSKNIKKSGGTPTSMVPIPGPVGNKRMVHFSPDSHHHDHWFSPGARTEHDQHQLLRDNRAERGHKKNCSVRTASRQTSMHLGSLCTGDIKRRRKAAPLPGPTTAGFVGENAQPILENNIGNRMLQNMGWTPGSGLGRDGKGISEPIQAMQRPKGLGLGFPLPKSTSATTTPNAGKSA
# UniProt Q9NR31: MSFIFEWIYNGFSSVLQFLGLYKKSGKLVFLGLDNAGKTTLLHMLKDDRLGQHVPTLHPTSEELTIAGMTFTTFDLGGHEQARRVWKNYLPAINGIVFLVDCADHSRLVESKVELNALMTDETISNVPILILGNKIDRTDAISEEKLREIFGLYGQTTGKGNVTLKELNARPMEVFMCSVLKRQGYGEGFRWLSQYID
# UniProt Q9NRJ4: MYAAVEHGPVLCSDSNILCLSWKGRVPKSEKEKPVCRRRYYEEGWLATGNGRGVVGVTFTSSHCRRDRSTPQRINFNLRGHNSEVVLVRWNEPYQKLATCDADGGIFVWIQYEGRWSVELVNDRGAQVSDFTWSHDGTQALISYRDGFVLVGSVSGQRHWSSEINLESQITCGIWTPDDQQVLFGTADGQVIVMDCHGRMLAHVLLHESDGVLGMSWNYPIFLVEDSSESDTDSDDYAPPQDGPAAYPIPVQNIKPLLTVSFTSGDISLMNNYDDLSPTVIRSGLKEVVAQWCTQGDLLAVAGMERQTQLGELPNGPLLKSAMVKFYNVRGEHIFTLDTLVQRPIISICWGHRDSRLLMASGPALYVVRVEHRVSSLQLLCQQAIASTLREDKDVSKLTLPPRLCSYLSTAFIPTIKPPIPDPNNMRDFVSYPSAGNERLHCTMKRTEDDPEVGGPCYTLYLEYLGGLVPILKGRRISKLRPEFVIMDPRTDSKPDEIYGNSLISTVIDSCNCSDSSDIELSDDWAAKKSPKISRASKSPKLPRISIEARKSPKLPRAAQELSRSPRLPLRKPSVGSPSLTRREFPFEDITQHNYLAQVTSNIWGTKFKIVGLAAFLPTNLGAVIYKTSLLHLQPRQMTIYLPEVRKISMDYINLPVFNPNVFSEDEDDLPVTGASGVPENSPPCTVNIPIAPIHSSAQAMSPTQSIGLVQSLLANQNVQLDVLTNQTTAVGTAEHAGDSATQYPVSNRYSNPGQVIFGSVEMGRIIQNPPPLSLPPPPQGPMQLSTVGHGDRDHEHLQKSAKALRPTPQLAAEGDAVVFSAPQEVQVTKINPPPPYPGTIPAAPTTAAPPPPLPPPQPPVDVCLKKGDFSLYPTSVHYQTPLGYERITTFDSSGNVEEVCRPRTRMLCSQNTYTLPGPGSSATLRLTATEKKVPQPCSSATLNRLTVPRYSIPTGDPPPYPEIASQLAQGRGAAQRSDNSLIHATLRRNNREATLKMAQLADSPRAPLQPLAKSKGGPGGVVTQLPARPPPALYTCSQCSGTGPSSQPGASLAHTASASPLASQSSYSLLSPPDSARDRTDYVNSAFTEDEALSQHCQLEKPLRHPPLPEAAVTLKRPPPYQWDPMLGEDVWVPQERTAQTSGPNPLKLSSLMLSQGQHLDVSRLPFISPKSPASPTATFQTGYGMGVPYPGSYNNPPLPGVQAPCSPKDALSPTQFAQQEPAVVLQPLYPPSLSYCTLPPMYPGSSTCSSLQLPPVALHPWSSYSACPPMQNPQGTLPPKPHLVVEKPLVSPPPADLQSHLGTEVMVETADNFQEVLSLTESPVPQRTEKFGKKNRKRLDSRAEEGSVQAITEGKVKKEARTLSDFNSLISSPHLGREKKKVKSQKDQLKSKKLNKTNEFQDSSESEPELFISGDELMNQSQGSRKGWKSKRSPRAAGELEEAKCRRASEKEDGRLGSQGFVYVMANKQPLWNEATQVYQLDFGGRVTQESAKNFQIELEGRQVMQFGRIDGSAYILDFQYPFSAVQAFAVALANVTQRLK
# UniProt Q9NTI5: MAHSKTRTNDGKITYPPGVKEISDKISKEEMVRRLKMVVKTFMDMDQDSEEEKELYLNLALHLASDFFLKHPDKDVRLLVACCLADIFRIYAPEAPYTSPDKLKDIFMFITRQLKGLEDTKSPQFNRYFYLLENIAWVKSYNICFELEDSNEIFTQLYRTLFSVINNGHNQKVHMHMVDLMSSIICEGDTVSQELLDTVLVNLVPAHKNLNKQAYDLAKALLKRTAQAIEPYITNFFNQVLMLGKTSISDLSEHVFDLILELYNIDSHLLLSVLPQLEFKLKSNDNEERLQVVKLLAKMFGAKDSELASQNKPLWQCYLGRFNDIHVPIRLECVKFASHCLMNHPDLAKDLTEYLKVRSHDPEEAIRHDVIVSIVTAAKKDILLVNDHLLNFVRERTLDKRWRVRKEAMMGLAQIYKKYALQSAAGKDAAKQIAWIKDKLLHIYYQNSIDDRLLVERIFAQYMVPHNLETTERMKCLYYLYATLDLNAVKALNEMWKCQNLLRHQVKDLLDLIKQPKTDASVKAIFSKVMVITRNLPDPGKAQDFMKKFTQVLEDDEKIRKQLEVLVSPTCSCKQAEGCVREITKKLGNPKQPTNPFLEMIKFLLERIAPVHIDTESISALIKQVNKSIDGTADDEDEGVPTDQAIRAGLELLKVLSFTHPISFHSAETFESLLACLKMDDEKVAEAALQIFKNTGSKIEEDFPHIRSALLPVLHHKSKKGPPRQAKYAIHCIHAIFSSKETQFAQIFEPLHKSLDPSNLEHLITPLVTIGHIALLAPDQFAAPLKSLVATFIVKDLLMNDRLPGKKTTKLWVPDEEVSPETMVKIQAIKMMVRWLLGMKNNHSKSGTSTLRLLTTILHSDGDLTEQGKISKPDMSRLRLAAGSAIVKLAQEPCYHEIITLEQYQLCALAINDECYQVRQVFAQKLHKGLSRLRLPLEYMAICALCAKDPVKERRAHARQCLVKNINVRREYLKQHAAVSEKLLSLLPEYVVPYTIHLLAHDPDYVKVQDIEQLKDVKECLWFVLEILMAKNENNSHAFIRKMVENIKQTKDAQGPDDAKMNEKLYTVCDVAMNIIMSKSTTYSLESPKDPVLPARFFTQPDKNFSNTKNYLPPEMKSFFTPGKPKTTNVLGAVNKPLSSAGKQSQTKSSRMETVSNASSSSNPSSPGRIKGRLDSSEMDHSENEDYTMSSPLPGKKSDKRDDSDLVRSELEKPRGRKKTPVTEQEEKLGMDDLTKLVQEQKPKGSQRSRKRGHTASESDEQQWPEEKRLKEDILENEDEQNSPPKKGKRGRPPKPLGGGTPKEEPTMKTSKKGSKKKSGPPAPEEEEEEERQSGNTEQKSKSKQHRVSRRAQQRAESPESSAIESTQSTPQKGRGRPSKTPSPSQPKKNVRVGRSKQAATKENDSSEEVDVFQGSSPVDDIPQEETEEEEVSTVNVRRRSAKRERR
# UniProt Q9NU19: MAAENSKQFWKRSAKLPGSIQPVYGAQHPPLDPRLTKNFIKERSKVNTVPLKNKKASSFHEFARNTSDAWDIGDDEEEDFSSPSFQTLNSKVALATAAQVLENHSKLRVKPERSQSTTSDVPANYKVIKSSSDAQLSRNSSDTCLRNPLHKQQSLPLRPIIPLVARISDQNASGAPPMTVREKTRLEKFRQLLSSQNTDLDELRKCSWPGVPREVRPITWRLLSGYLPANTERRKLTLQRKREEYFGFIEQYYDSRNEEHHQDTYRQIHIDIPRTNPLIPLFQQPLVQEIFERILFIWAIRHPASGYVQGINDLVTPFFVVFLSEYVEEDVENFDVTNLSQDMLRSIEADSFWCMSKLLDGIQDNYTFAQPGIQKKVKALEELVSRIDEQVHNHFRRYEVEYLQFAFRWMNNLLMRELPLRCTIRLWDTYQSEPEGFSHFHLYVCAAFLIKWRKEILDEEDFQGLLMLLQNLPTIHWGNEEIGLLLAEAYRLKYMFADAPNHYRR
# UniProt Q9NWV4: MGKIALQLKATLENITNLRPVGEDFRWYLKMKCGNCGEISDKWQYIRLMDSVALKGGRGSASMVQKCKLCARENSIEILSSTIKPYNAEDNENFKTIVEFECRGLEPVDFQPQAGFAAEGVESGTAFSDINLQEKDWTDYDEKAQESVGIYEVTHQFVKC
# UniProt Q9NWV8, whole entry: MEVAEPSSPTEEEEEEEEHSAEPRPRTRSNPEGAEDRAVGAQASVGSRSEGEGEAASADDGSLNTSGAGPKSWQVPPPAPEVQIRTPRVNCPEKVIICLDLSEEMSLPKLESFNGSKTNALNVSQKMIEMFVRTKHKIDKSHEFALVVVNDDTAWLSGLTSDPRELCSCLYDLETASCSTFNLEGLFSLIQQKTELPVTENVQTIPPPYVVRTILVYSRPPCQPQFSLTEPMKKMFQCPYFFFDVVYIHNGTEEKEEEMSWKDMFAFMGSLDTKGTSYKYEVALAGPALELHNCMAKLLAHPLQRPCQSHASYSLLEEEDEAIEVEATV
# UniProt Q9NR81: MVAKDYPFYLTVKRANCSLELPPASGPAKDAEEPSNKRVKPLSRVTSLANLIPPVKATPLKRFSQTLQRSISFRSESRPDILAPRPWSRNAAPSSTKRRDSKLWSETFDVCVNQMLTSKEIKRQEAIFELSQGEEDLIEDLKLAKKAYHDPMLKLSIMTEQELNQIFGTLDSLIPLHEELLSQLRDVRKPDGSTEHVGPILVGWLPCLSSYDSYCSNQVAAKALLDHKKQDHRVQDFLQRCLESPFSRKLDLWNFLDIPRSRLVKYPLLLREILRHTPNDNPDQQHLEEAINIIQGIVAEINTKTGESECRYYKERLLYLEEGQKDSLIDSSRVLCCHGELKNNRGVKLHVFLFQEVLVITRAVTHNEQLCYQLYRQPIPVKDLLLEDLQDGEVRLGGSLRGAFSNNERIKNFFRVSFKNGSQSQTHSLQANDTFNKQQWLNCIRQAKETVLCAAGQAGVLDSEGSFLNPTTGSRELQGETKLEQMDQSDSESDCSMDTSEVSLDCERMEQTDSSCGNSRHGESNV
# This is one part of the list. Most values lie at the level of the controls, where differences are scatter.
# Compound: Cc1nc(Nc2ncc(C(=O)Nc3c(C)cccc3Cl)s2)cc(N2CCN(CCO)CC2)n1 [dasatinib]
# Test: log2 fold change of tryptic peptide abundance, ligand vs vehicle (limited proteolysis) (log2 ratio); higher = more trypsin-susceptible (destabilized)
# Conditions: ligand concentration: 5 uM; sample: K562 cleared lysate
target,measurement,value
"UniProt Q9NRP4 (peptide sequence: QFSISESMKPK, peptide start residue: 114)",log2 fold change,-0.286
"SIRT3 (peptide sequence: DLVGPLAWHPR, peptide start residue: 346) (UniProt Q9NTG7)",log2 fold change,-0.16
"AVEN (peptide sequence: EVNNESGESQR, peptide start residue: 127) (UniProt Q9NQS1)",log2 fold change,-0.321
"SEPSECS (peptide sequence: SGDISAVQPK, peptide start residue: 98) (UniProt Q9HD40)",log2 fold change,0.35
"HOMER3 (peptide sequence: SQSADAPGPTER, peptide start residue: 157) (UniProt Q9NSC5)",log2 fold change,-0.239
"GPATCH2 (peptide sequence: GGFAETGDHSR, peptide start residue: 45) (UniProt Q9NW75)",log2 fold change,0.151
"FARSB (peptide sequence: DLLFQALGR, peptide start residue: 9) (UniProt Q9NSD9)",log2 fold change,-0.111
"UniProt Q9NRR4 (peptide sequence: AARPPWEPPKTK, peptide start residue: 461)",log2 fold change,-0.458
"SAR1A (peptide sequence: PMEVFMCSVLKR, peptide start residue: 172) (UniProt Q9NR31)",log2 fold change,-0.367
"ABCF3 (peptide sequence: LLLGDLAPVR, peptide start residue: 537) (UniProt Q9NUQ8)",log2 fold change,-0.112
"UniProt Q9NRJ4 (peptide sequence: TAQTSGPNPLK, peptide start residue: 1139)",log2 fold change,0.415
"LATS2 (peptide sequence: LTDFGLCTGFR, peptide start residue: 844) (UniProt Q9NRM7)",log2 fold change,0.414
"PDS5B (peptide sequence: KSGPPAPEEEEEEER, peptide start residue: 1318) (UniProt Q9NTI5)",log2 fold change,-0.4
"GNL3L (peptide sequence: NELPTVAFK, peptide start residue: 192) (UniProt Q9NVN8)",log2 fold change,-0.124
"GPCPD1 (peptide sequence: QNKYPILFLTQGK, peptide start residue: 516) (UniProt Q9NPB8)",log2 fold change,-0.201
"TBC1D22B (peptide sequence: NEEHHQDTYR, peptide start residue: 257) (UniProt Q9NU19)",log2 fold change,-0.378
"UniProt Q9NWV4 (peptide sequence: LMDSVALK, peptide start residue: 48)",log2 fold change,0.121
"UniProt Q9NUK0 (peptide sequence: YLHPPPHLK, peptide start residue: 68)",log2 fold change,0.059
"HPS4 (peptide sequence: GEVLGLSSSLGK, peptide start residue: 347) (UniProt Q9NQG7)",log2 fold change,-0.291
"UniProt Q9NUJ3 (peptide sequence: HALPVGGMAAGSGDMPR, peptide start residue: 282)",log2 fold change,0.0361
"UniProt Q9NWV8 (peptide sequence: SNPEGAEDR, peptide start residue: 29)",log2 fold change,0.0858
"MED17 (peptide sequence: DFNSELLR, peptide start residue: 182) (UniProt Q9NVC6)",log2 fold change,-0.428
"UniProt Q9NR81 (peptide sequence: VQDFLQR, peptide start residue: 286)",log2 fold change,0.341
"UTP3 (peptide sequence: HLLTLKDDAVKK, peptide start residue: 324) (UniProt Q9NQZ2)",log2 fold change,0.336
"HELLS (peptide sequence: NALQHCYWK, peptide start residue: 341) (UniProt Q9NRZ9)",log2 fold change,-0.494
"SSU72 (peptide sequence: DKELYTQNGILHMLDR, peptide start residue: 72) (UniProt Q9NP77)",log2 fold change,0.169

# Reformatted tab-delimited: entries from further up.
target	measurement	value
LATS2 (peptide sequence: LTDFGLCTGFR, peptide start residue: 844) (UniProt Q9NRM7)	log2 fold change	0.414
TBC1D22B (peptide sequence: NEEHHQDTYR, peptide start residue: 257) (UniProt Q9NU19)	log2 fold change	-0.378
